Columns and labels:
Type in all cases: cell-based
MCF-7 = test: MTT antiproliferation assay, MCF-7; settings: Homo sapiens, MCF7, 48 h, read-out: IC50 ± SD MCF-7
Description: (§1) […]. […] […]. […] […].
(§2) MCF-7 (human breast cell line), HeLa (human cervical cell line), A549 (human lung cell line), HepG2 (human liver cell line), SW620 (human colorectal cell line) and a non-cancer cell line, NCM460 (Human colonic epithelial cells) were preserved at the State Key Laboratory of Pharmaceutical Biotechnology, Nanjing University (Nanjing, China). Cells were maintained in Dulbecco′s modified Eagle′s medium (DMEM) (HyClone, Logan, UT, USA) with 10% fetal bovine serum (FBS, BI) (HyClone, Logan, UT, USA), 100 U/mL penicillin and 100 mg/mL streptomycin (Hyclone, Logan, UT, USA), and incubated at 37 °C in a humidified atmosphere containing 5% CO2.
(§3) The antiproliferative activity of the synthetic compounds against the SW620, MCF-7, HeLa, A549, HepG2, and NUM460 cell lines was evaluated by a colorimetric assay based on a modified standard (MTT). Test cell lines were seeded at a density of 1 × 10^4/well in 96-well plates and incubated for 12 h at 37 °C in DMEM supplemented with 10% fetal bovine serum. All test compounds dissolved in DMSO were then treated to cells at 0 μM, 0.1 μM, 1 μM, 10 μM, and 100 μM and incubated for 48 h at 37 °C in 5% CO2. […] The absorbance (OD 570 nm) was read at 630 nm on an ELISA reader (ELx800, BioTek, montpelier, VT, USA). IC50 values for the compounds were calculated by comparison to DMSO treated control wells. […]

HeLa = test: MTT antiproliferation assay, HeLa; settings: Homo sapiens, 48 h, read-out: IC50 ± SD HeLa
Description: as §1, §2, §3

HepG2 = test: MTT antiproliferation assay, HepG2; settings: Homo sapiens, HepG2, 48 h, read-out: IC50 ± SD HepG2
Description: as §1, §2, §3

SW620 cells = test: MTT antiproliferation assay, SW620; settings: Homo sapiens, SW-620, 48 h, read-out: IC50 ± SD SW620
Description: as §1, §2, §3

[1] = MTT cytotoxicity assay, non-cancer colon cells; settings: human, NCM460 colonic epithelial cells (non-cancer cell line), n = 3, non-cancer cell line, read-out: CC50 ± SD NUM460
Method: […]. […] […]. Besides, the MTT assay was performed on a non-cancer line NCM460 to assess the cytotoxicity of the test compound to normal colon cells. […].
as §2
as §3, with “serum.” for “serum. All test compounds dissolved in DMSO were then treated to cells at 0 μM, 0.1 μM, 1 μM, 10 μM, and 100 μM and incubated for 48 h at 37 °C in 5% CO2.”

In the case of `Cc1ccc(-c2cc(C(F)(F)F)nn2-c2ccc(S(N)(=O)=O)cc2)cc1` [Celecoxib, reference compound], the IC50 (MCF-7) is reported as 2.63 ± 0.09 µM, the IC50 (HeLa) is reported as 2.56 ± 0.15 µM and the IC50 (HepG2) is reported as 3.12 ± 0.27 µM. For the same molecule, the IC50 (SW620 cells) was 1.29 ± 0.04 µM and the CC50 at 48 h [1] was 136 ± 9.86 µM.

Reference: article PMC6539903 (Molecules, 2019)
